Patent US5296358A, “Process for the enzymatic preparation of cephalosporanic derivatives using a D-amino acid oxidase from Rhodotorula glutinis NCIMB 40412” (Ministero Dell'Universita' e Della Ricerca Scientifica e …, priority 1991, dated 1994)
For at least one compound, name, drawing or mass did not settle the structure.

Test system: Rhodotorula glutinis NCIMB 40412
Test: biochemical growth tests on different organic substrates
Format: cell-based
Conditions: biochemical growth test; + / - as printed, no key given

Structure (SMILES): COC1OC(CO)C(O)C(O)C1O [Methylm-D-Glucoside]
- growth of the micro-organism on organic substrate: -
